Test results as given in the supplement of paper PMC3334620.
In all, about 33,000 sequences were measured (“E-score (-0.5 to 0.5)”: median about -0.0034, highest 2% from about 0.25 on). Some of the results follow.

target: T1, Yap3 (UniProt P38749); assay: PBM E-score (8-mer binding enrichment) (E-score (-0.5 to 0.5)); higher = stronger / more preferred TF binding; conditions: protein concentration: 100 nM; construct: GST-full length
T1 sequence: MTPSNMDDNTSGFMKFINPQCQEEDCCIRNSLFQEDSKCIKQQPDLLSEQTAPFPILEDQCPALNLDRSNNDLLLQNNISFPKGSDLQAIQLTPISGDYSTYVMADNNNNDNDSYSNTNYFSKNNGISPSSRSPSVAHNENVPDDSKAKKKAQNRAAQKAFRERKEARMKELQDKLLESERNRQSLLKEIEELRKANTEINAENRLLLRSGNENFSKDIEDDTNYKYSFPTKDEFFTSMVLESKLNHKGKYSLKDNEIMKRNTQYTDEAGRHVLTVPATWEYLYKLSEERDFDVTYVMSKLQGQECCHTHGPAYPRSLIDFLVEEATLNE
Procedure, shortened: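 Each ungapped eight-base word and its reverse complement, pooled, received an E-score from the Universal PBM Analysis Suite. Underlying scans, normalised with masliner, recorded fluorescent anti-GST bound to GST-tagged yeast transcription factors. These were applied at about 100-200 nM to universal all-10-mer Agilent arrays double-stranded by primer extension.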

Sequence	PBM E-score
AGGTACAA	-0.0364
AGAGGACC	-0.121
CTTTTGGA	-0.0508
TCAATAAA	0.148
CCGATACC	-0.054
TCCAGAGA	-0.169
TCTGCCCA	-0.148
AGTGCGAT	-0.0748
GGTTCAGA	-0.0354
GGTTTTGA	0.0555
ACCATCTC	0.104
CCCTCACA	-0.106
CCTCCTGC	-0.172
CGCATTAA	0.167
AACCTTGG	-0.0497
CGACAAAA	0.243
ACCACCGA	-0.109
CAACCCAG	-0.174
CTGGACAA	-0.106
ATCTCCTG	0.0684
CAGCGAAG	-0.16
GACCTCAA	0.0909
CCCACCGC	-0.00756
TCTCTAAA	0.0348
GCTCGAAA	0.0771

Sequence	PBM E-score
ATTGTTCG	0.171
GCACGCCA	-0.263
CAACCGAG	0.0888
GCGGCGCC	0.0677
AGTATCGC	0.0525
CTTCACGA	-0.293
AAAGAACT	0.145
GCATGGTA	0.0244
CCATATGA	0.00159
ATAGAGGC	-0.0393
ATTCAGGA	0.0435
CGAACAAA	0.303
TATTCGCA	0.0736
CTTTTCGA	0.0999
GTATCGAA	0.129
GAGGCAAA	0.166
ACTCGCGG	0.0017
AGGGAGGC	-0.281
CGATGATC	-0.0736
ATGTCACG	0.0609
AAGACGAG	-0.105
GTGGCCAC	-0.0436
AGCGTTGA	-0.161
GACGGTGC	-0.146
AATCCCTG	-0.102

Sequence	PBM E-score
ATGAGGTG	0.035
TGGACACA	0.0862
GCAGGGTA	-0.00172
AGTCGATG	0.0111
AAGCCAGT	-0.106
ACGATAAC	0.207
ACTACACT	-0.0412
ATCGCTCG	-0.0755
TTTATAAA	0.277
ACTGGAAC	-0.101
TACCGAGA	0.0165
CAGACCAC	0.0738
GACTCAGA	0.0377
AATTTGAC	0.194
AAGCCCCG	-0.143
GAGTACGC	-0.261
GCAGAGAC	-0.322
TTGAGCAA	-0.0128
GAGGTTGA	-0.102
CGGTTAAA	0.196
ACTGCATC	-0.0342
ATTATAAA	0.231
CCTAGCGA	-0.263
TAAACCTA	0.171
TCCGTAGA	-0.064

Sequence	PBM E-score
CAGGCTTA	-0.108
AGTGGAAC	-0.0961
CTGGGTAC	-0.178
AGCGAACC	-0.127
ACGGTAGG	-0.11
AGGTCACT	-0.244
ACGGTTGG	-0.036
CTCAACCA	-0.0178
CGACCCCA	-0.16
AGGCTAGA	-0.194
CCTTCTAG	-0.16
CTGTCTGC	-0.256
ACCAGTAC	0.00976
CACGCACC	-0.166
ACTAGGCT	-0.0412
AGGGCGCC	-0.257
CATACGGC	0.0866
GATATAGA	0.154
AATCATCC	0.0464
AAACCGTA	-0.092
ATTCGCTA	0.00111
CGATAGCA	-0.0895
ATGATCTA	0.15
CTCATCAA	0.0304
AACCTACC	-0.0143

Sequence	PBM E-score
AACCATCC	-0.0788
AATGAACG	0.114
AATACGAG	0.133
AACAAAAT	0.254
CAGGCTCC	-0.149
CGTATTAA	0.0173
ACCCTATG	-0.00051
ACAGTCCG	-0.124
GCGGGGCC	-0.322
CAGCCCAC	-0.187
ACTCTCGA	0.124
AGCTAGGG	-0.00712
CTTCTTAC	-0.0371
GCCAATAA	0.235
AAAGCTGT	0.15
ACTATCGC	-0.03
ACTAAGTC	0.00495
CCCGGCCC	-0.405
TATAAAGA	0.166
ATATAATC	0.157
AACCACGG	-0.0913
GCCTTCCC	-0.356
TCGTACGA	0.0662
GCATGGCC	-0.101
CGGCATTA	0.21

Sequence	PBM E-score
ATTGGGCC	0.12
CCCAGCGG	-0.286
CCGCTCTA	-0.0195
AGGAGGAC	-0.357
CATAGTTC	0.03
CGAACACC	-0.0337
CAATGGGG	-0.0335
CTGGGGGA	-0.308
ATTATAGC	0.0728
CTACATAC	0.157
CGGCGAGA	0.0492
ATGCCACC	-0.233
ACGATACT	-0.0359
ATGCGTAG	-0.0528
CCTGCATC	-0.0897
AATGCCAG	-0.00344
GTAGTAGA	-0.053
CAACAACA	0.251
TATATGCA	0.106
CGCCAGCA	-0.234
TAGTCGAA	0.11
AGTACGAA	0.245
CAGTGGAC	-0.093
CGGAGCAG	-0.191
ATGCCTCA	-0.0667

Sequence	PBM E-score
GCTGGCGA	-0.151
CACGTTAC	-0.0134
CTTACTTA	0.113
CTACACTA	-0.0184
GGTGTAAA	0.0305
GGCTCTGA	-0.03
GTGGGGCA	-0.0676
ATCACTTA	0.145
ATTAATCG	0.191
TCTCATCA	0.208
CTGTAGGC	-0.0117
AATTGTGG	0.0214
ATAGTTAC	0.106
AACCAACC	-0.0345
ACAGGTCG	-0.0506
CCGGCCAA	-0.192
CTACGGCA	0.13
GATTTAAC	0.215
GTCGTTCA	-0.0656
ATTATCCA	0.0641
GGTTTCTA	0.0539
CTGTGTTA	0.162
GTATGAAC	0.0322
AATCACTG	0.14
AATCCGTA	0.0489

Sequence	PBM E-score
GCACCCTA	-0.115
AATCTTTC	0.153
GACATACC	-0.0155
ACACTCGG	0.12
GCTGGGAC	-0.188
ATACACTG	0.0555
AGTTCTTA	0.0765
CTATACAG	-0.0586
CGCACGAG	-0.14
AGGTCTGG	-0.269
AAGACACT	0.1
CGCGAGCG	-0.19
ATGAGAAT	0.0726
ATATACCC	0.0393
GGTTATAC	-0.0119
CACGTCTA	0.0226
CACTGCTC	0.0346
CGGTGCGC	-0.101
AGGAAGCG	-0.067
ACGGACCT	-0.172
GGCGGGCA	-0.125
AACAGTCC	-0.0853
AGATCGCA	-0.00627
TCAGATAA	0.214
ACGCCCAG	-0.141

Sequence	PBM E-score
CCGCACCC	-0.121
CGCCGACC	-0.309
AGGCATCA	-0.261
CGAAGAGA	0.101
CCGCTAGA	-0.257
CTGGATGA	-0.094
GGGACTGA	-0.228
AGAAAGCT	0.0735
AGTAGGAG	-0.205
GGGGTAAA	0.0656
AGAAGGTG	0.029
GCAGTGGC	-0.228
CACCAGTA	0.0697
ACCGTTCC	0.0568
CCGTGAGC	-0.218
AGAGACGA	-0.0103
ATAGGGGC	-0.13
AGAAGAGC	-0.00967
CCGAATCG	0.00203
AGACCACA	-0.132
ACTACGCG	0.00052
GAACTGGC	-0.133
AATTATGT	0.164
AAACGTCG	-0.0414
GTTGTGGA	-0.0252

An excerpt of these results, field by field.
GCAGTGGC
  PBM E-score = -0.228
ATAGGGGC
  PBM E-score = -0.13

More results.

Sequence	PBM E-score
CGAAAAAC	0.0504
GGATGCAA	0.131
AAGTGCCA	-0.0862
CAAGGCTC	-0.357
CGAGCATA	0.0498
GTAACTGA	-0.0795
CCCGTCCC	-0.316
CGATCGTC	-0.0346
CCACAGTC	-0.226
CAGCGTAA	-0.0239
AAACATAT	0.305
CATTACAA	0.28
AAACTGGA	0.0413
CAGTATGG	0.014
TCAACCGA	0.152
AACCCCGA	-0.00855
TGAGCGAA	0.194
GGGCCCCC	-0.498
ACCTTAGC	0.0271
CCGTAAGA	-0.0971
CTAGAACA	0.0627
AACGTCGT	-0.0495
GTGTAGTA	0.0243
CTGGCTGA	-0.0777
AGCGTACG	-0.0792

Sequence	PBM E-score
AGGGTCAT	-0.133
GAAAGCAA	0.248
ACACGATA	0.116
AGGTAGGA	-0.0238
GACCTAAA	-0.00699
CTAGGGAG	-0.174
TGGTCCAA	-0.121
TCACCTAA	0.03
CATTCGCA	0.0508
GAATGTGA	0.0268
AGTTGGAA	0.0377
AATCGGTA	0.121
AGATCCAG	-0.0679
ATCAGTTC	-0.0212
AATCGCGT	0.156
CTCCACTA	0.0329
GAGAGCTC	-0.227
ATTAATAG	0.228
AGTCGCAA	0.0524
CTCAAAGC	0.00619
CCCACCAA	0.0694
AAGGCCCT	-0.0687
GTCAGGAA	0.0509
CAGTGTCC	-0.161
CCACCTTA	0.0924

In another format: entries from further up.
Sequence | PBM E-score
CTAGGGAG | -0.174
TGGTCCAA | -0.121
TCACCTAA | 0.03
CATTCGCA | 0.0508

The listing continues:

Sequence	PBM E-score
ATAGCTTG	-0.021
GTAAAATA	0.117
ACGCTGAT	-0.0611
AACCGGCT	-0.112
CGATATCC	0.146
AATGAGCG	0.203
ATACTGCC	0.0316
GCTTAAAA	0.0767
CATTTCCA	0.155
GCGTCCAC	-0.303
AATTGGTG	0.204
ACGGCGTC	-0.137
CGTATAAC	-0.0132
AGCACCCC	-0.178
GGACATAA	0.0711
CTCGGGGA	-0.116
AAGACATA	0.248
AACAAGTC	0.0497
CTCCAGAA	-0.194
ACATCTAT	0.178
AGTATTAA	0.186
CTCGCAAG	0.0168
ACCCAGGC	-0.103
CCGCCGAA	-0.016
CAACTGAA	-0.159

Part of the list above, as comma-separated lines:
Sequence,PBM E-score
GAAAGCAA,0.248
ACACGATA,0.116
AGGTAGGA,-0.0238
GACCTAAA,-0.00699
CTAGGGAG,-0.174

Remaining list, next part.

Sequence	PBM E-score
ATGGGGCA	-0.0507
GGAGATCA	0.00849
CGCGGGAA	0.103
GTGAGTTA	-0.0397
AGTGATGA	-0.117
TAGTAAGA	0.227
ATAATAAG	0.194
CTCGCCCC	-0.153
GTGTTGTA	-0.0537
CAACACCC	-0.142
CCTCACTC	-0.0175
CGGCGGTC	-0.302
AGGCTAAC	-0.0146
TAGAATCA	-0.113
ACTAGTGA	-0.129
ATTAACCC	0.026
CCATCCTA	-0.0259
CGGGCCAC	-0.193
CCCATGTC	-0.146
CTCCCTTA	-0.197
AATGCGAC	0.106
CACGGGAC	-0.138
GCCCAAGC	-0.053
AAAACTTG	0.108
CTAAATTA	0.212

Sequence	PBM E-score
GCAGCCGC	-0.179
AGTAGCGC	0.0524
GCTTGGAC	-0.0766
GGTCGCCA	-0.186
ACGCGTAG	0.0219
CATCACGG	0.121
GGTATGGA	0.034
AACAACCA	0.184
CTCCATCC	-0.186
CGATGTAA	0.065
AACTGACC	-0.0946
GGATCTAC	-0.147
ATACAAGA	0.0503
TCGAAAGA	0.0441
AAGGTGCT	0.034
CCCAATGA	-0.0591
CTAAGCAC	0.0111
GACTAGGC	-0.0571
AGAGCACT	-0.00562
